Biological target: ATXN1-S776 phosphorylation
Experiment: In vitro mouse cerebellar extract kinase assay
Type: biochemical
Conditions: panel of six kinase inhibitors, Figure S1B

CN[C@@H]1C[C@H]2O[C@@](C)([C@@H]1OC)n1c3ccccc3c3c4c(c5c6ccccc6n2c5c31)C(=O)NC4 [Staurosporine]
IC50 for inhibition of GST-ATXN1[30Q]-S776 phosphorylation (range in words): low nanomolar range

— paper PMC6028938 (Neurobiology of disease, 2018)
